Results are given in words; binding and its absence hold for the method and conditions named. Binding seen in cells or lysates may run through a third protein. These calls come from enrichment with a bait or labelling near it, and not all partners need be listed. A no says only that the protein was not detected with the bait. Where a sequence is shown, tags or fusion partners need not be part of it.
Biological target: T1, HA-BirA-TASOR, full-length (human), Q9UK61
T1 chain: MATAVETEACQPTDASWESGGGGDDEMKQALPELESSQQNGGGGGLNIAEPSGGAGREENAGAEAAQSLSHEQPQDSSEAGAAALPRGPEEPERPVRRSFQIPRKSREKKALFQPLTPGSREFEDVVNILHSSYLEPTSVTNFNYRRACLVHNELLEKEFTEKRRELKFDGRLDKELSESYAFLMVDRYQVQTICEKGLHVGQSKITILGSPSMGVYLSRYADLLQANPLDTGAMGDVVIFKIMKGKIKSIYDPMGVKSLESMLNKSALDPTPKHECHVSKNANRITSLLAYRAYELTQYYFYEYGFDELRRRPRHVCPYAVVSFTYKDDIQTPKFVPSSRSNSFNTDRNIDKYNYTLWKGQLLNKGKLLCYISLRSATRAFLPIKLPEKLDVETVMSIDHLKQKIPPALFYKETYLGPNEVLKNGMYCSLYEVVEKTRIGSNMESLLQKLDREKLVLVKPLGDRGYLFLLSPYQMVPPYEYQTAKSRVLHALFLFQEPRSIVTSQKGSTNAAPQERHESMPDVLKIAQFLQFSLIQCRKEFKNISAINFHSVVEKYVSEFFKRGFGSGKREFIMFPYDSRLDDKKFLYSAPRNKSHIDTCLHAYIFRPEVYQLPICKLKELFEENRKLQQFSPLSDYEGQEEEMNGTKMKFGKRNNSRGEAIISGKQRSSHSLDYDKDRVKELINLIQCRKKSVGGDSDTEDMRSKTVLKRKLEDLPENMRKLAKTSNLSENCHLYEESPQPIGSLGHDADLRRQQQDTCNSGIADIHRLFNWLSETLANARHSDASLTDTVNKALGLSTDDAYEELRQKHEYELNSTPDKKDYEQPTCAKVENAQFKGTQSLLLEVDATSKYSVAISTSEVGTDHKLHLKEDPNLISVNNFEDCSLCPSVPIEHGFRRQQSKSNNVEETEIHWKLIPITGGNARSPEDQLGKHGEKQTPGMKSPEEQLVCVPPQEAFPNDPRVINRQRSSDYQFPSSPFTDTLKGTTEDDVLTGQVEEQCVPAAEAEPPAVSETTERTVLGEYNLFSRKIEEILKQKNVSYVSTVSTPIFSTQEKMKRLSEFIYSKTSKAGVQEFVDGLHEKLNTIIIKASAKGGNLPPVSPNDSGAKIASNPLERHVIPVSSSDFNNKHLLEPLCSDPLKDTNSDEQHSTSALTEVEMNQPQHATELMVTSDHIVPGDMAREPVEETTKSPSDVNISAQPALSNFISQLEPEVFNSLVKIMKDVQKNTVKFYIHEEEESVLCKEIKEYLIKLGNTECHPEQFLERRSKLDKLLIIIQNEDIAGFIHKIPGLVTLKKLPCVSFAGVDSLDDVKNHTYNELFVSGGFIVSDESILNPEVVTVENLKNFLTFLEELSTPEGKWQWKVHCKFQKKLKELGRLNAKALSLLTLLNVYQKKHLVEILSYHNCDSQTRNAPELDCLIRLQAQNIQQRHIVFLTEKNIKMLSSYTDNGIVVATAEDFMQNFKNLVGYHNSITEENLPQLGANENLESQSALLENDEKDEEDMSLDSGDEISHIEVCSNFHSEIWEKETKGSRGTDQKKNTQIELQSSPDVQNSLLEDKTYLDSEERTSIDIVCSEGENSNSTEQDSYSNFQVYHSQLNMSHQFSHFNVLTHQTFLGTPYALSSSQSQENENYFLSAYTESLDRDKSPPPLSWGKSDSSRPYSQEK
Test: proximity labelling; BioID: HA-BirA-tagged TASOR variants in TASOR knockout cells, 50 μM biotin for 18 h, nuclei lysed, streptavidin beads, mass spectrometry; control: TASOR knockout cells with biotin but without BirA-tagged TASOR
Conditions: remark: other sources report otherwise

B1: MORC2, Q9Y6X9 1-1032 (protein)
chain: MAFTNYSSLNRAQLTFEYLHTNSTTHEFLFGALAELVDNARDADATRIDIYAERREDLRGGFMLCFLDDGAGMDPSDAASVIQFGKSAKRTPESTQIGQYGNGLKSGSMRIGKDFILFTKKEDTMTCLFLSRTFHEEEGIDEVIVPLPTWNARTREPVTDNVEKFAIETELIYKYSPFRTEEEVMTQFMKIPGDSGTLVIIFNLKLMDNGEPELDIISNPRDIQMAETSPEGTKPERRSFRAYAAVLYIDPRMRIFIHGHKVQTKRLSCCLYKPRMYKYTSSRFKTRAEQEVKKAEHVARIAEEKAREAESKARTLEVRLGGDLTRDSRVMLRQVQNRAITLRREADVKKRIKEAKQRALKEPKELNFVFGVNIEHRDLDGMFIYNCSRLIKMYEKVGPQLEGGMACGGVVGVVDVPYLVLEPTHNKQDFADAKEYRHLLRAMGEHLAQYWKDIAIAQRGIIKFWDEFGYLSANWNQPPSSELRYKRRRAMEIPTTIQCDLCLKWRTLPFQLSSVEKDYPDTWVCSMNPDPEQDRCEASEQKQKVPLGTFRKDMKTQEEKQKQLTEKIRQQQEKLEALQKTTPIRSQADLKKLPLEVTTRPSTEEPVRRPQRPRSPPLPAVIRNAPSRPPSLPTPRPASQPRKAPVISSTPKLPALAAREEASTSRLLQPPEAPRKPANTLVKTASRPAPLVQQLSPSLLPNSKSPREVPSPKVIKTPVVKKTESPIKLSPATPSRKRSVAVSDEEEVEEEAERRKERCKRGRFVVKEEKKDSNELSDSAGEEDSADLKRAQKDKGLHVEVRVNREWYTGRVTAVEVGKHVVRWKVKFDYVPTDTTPRDRWVEKGSEDVRLMKPPSPEHQSLDTQQEGGEEEVGPVAQQAIAVAEPSTSECLRIEPDTTALSTNHETIDLLVQILRNCLRYFLPPSFPISKKQLSAMNSDELISFPLKEYFKQYEVGLQNLCNSYQSRADSRAKASEESLRTSERKLRETEEKLQKLRTNIVALLQKVQEDIDINTDDELDAYIEDLITKGD
binding: no binding
